{
  "source": "paper PMC11758950",
  "key": {"[1]": {"target": "T1, ELFN1-nLuc (mouse) (UniProt Q8C8T7)", "T1 sequence": "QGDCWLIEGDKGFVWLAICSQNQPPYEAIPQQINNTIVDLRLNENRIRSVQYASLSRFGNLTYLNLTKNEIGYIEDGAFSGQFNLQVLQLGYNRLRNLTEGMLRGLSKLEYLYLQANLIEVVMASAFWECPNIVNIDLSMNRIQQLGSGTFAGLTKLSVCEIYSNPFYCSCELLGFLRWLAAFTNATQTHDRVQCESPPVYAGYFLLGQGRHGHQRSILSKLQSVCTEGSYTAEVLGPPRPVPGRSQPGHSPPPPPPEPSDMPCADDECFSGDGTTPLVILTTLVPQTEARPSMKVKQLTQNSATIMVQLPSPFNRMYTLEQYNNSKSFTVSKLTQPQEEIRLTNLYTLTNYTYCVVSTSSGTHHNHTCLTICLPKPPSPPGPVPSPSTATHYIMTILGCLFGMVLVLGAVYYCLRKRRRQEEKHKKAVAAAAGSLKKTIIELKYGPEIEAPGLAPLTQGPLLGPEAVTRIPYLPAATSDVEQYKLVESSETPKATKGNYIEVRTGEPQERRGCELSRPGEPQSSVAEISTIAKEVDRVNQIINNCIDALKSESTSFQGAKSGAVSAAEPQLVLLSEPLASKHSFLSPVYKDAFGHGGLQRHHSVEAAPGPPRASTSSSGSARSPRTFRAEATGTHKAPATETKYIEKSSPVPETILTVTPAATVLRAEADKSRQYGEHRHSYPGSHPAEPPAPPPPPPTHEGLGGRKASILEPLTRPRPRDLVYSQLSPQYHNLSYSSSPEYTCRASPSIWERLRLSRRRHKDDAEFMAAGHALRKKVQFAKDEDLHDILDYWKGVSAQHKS", "assay": "FRET or BRET; donor/acceptor titration BRET in live transfected HEK 293 T/17 cells; constant nLuc donor construct (5 ng), increasing Venus acceptor construct (0-2.4 ug); Nano-Glo reagent 0.1%; ratio 535 nm / 460 nm"}, "[2]": {"target": "T2, ELFN2-nLuc (UniProt Q68FM6)", "T2 sequence": "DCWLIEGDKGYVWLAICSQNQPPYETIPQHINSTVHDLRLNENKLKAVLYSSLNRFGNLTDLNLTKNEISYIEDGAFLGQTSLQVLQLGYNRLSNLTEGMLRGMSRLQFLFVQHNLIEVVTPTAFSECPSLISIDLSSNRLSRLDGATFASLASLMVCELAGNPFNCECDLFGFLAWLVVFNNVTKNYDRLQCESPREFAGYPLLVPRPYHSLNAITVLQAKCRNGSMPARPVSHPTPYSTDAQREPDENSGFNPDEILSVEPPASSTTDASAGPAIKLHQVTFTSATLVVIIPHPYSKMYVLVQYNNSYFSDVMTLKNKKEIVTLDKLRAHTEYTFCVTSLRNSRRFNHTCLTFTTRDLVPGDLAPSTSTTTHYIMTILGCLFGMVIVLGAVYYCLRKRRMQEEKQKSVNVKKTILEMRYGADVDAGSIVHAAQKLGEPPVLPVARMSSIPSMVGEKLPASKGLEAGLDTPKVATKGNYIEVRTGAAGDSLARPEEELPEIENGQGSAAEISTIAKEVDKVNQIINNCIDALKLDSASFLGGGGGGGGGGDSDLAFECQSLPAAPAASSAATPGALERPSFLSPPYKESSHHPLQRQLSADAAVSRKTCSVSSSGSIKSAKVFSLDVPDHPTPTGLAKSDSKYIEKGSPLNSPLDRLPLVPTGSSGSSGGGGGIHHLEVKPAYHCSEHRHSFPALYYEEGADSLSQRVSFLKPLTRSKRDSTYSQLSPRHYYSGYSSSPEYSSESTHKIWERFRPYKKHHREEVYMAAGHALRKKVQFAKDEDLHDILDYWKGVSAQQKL", "assay": "FRET or BRET; donor/acceptor titration BRET in live transfected HEK 293 T/17 cells; constant nLuc donor construct (5 ng), increasing Venus acceptor construct (0-2.4 ug); Nano-Glo reagent 0.1%; ratio 535 nm / 460 nm"}},
  "note": "Results are given in words; binding and its absence hold for the method and conditions named. Binding seen in cells or lysates may run through a third protein. Some results given as binding are weak or reduced against the parent protein; the word gives no strength. Sequences can lack the tags named with a protein.",
  "data": [
    {"binder": "ELFN2-Venus (protein, UniProt Q68FM6 23-823) DCWLIEGDKGYVWLAICSQNQPPYETIPQHINSTVHDLRLNENKLKAVLYSSLNRFGNLTDLNLTKNEISYIEDGAFLGQTSLQVLQLGYNRLSNLTEGMLRGMSRLQFLFVQHNLIEVVTPTAFSECPSLISIDLSSNRLSRLDGATFASLASLMVCELAGNPFNCECDLFGFLAWLVVFNNVTKNYDRLQCESPREFAGYPLLVPRPYHSLNAITVLQAKCRNGSMPARPVSHPTPYSTDAQREPDENSGFNPDEILSVEPPASSTTDASAGPAIKLHQVTFTSATLVVIIPHPYSKMYVLVQYNNSYFSDVMTLKNKKEIVTLDKLRAHTEYTFCVTSLRNSRRFNHTCLTFTTRDLVPGDLAPSTSTTTHYIMTILGCLFGMVIVLGAVYYCLRKRRMQEEKQKSVNVKKTILEMRYGADVDAGSIVHAAQKLGEPPVLPVARMSSIPSMVGEKLPASKGLEAGLDTPKVATKGNYIEVRTGAAGDSLARPEEELPEIENGQGSAAEISTIAKEVDKVNQIINNCIDALKLDSASFLGGGGGGGGGGDSDLAFECQSLPAAPAASSAATPGALERPSFLSPPYKESSHHPLQRQLSADAAVSRKTCSVSSSGSIKSAKVFSLDVPDHPTPTGLAKSDSKYIEKGSPLNSPLDRLPLVPTGSSGSSGGGGGIHHLEVKPAYHCSEHRHSFPALYYEEGADSLSQRVSFLKPLTRSKRDSTYSQLSPRHYYSGYSSSPEYSSESTHKIWERFRPYKKHHREEVYMAAGHALRKKVQFAKDEDLHDILDYWKGVSAQQKL", "values": [
      {"measurement": "binding", "setting": "[1]", "result": "binds"},
      {"measurement": "binding", "setting": "[2]", "result": "binds"}
    ]}
  ]
}
